No constants are given. Whether binding was seen depends on the method and setting. Some binding calls cover weakened binding; strength is not graded here.
What was measured:
[1] = target: T1, purified recombinant C35 protein generated in E. coli (human) (UniProt Q9BRT3); experiment: ELISA and Western blot
T1 sequence: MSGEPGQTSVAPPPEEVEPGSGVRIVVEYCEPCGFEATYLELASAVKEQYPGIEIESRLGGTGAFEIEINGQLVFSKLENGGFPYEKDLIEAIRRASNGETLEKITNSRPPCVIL

[2] = target: T1, purified recombinant C35 protein generated in E. coli (human); experiment: Western blot, hybridoma supernatant
[3] = target: T1, purified recombinant C35 protein generated in E. coli (human); experiment: ELISA, hybridoma supernatant on coated C35 protein, anti-mouse HRP
[4] = target: T1, purified recombinant C35 protein generated in E. coli (human); experiment: Western blot, 100 ng recombinant C35 per lane, hybridoma supernatant
[5] = target: T2, C35 protein, bacterially synthesized (recombinant human C35 purified from E. coli) (human) (UniProt Q9BRT3); experiment: Western blot of purified recombinant C35 protein
T2 sequence: T1 sequence

[6] = target: T2, C35 protein, bacterially synthesized (recombinant human C35 purified from E. coli) (human); experiment: ELISA screen of hybridoma supernatants on plates coated with C35 protein

Measured: binding

B1: 1B3 monoclonal antibody (antibody, mouse IgG1, V domains shown)
VH: EVQLQESGPSLVKPSQTLSLTCSVTGDSITSGYWNWIRKFPGNKLEYVGYISYSGGTYYNPSLKSRISITRDTSKNHYYLQLNSVTTEDTATYYCARGAYYGGAFFPYFDVWGAGTTVTVSS
VL: DVQITQSPSFLAASPGETITINCRASKYISKHLVWYQEKPGETKKLLIYSGSTLQSGLPSRFSGSGSGTDFTLTISSLEPEDFAMYYCQQHNEYPLTFGAGTKLELK
notes: Mouse IgG1, tested as hybridoma supernatant
binds: [1] | [2] | [3] | [4]

B2: 3E10 monoclonal antibody (antibody, V domains shown)
VH: B1 VH
VL: B1 VL
binds: [1] | [2] | [3] | [4]

B3: monoclonal antibody of hybridoma clone 1B3 (antibody, mouse IgG1, V domains shown)
VH: B1 VH
VL: B1 VL
binds: [5] | [6]

B4: monoclonal antibody of hybridoma clone 3E10 (antibody, V domains shown)
VH: B1 VH
VL: B1 VL
binds: [5] | [6]

Source: patent US20040063907A1 (published 2004)
